# Laboratory results published in the supplement of paper PMC8728848.
# Some of the results follow.
# B1: Epa11 (Candida glabrata) (protein)
# chain: MGSSHHHHHHSSGLVPRGSHMASSNAPNYPVGCSPSVGTQLTPGLSLEVYAYPMDGNNGYCWNATYKDPEFPRSGYLKNKLLGKADGVVGPLNFLAKNKDCSPKVDTLPAGFNFPQPITVTNFTMVLFGYLAPKQSGKYTFKLLADDLLLLNLGATNAFDCCNREATKNNLGEFLAYNLWPNQDKNVTVYLEKGVYYPLRLFFNNRDGGSQLDFSYYFNDSPAPLTDFSGMFFSVPDGAECPARI
# Tests used:
# Test in all cases: glycan array binding signal (z-score within array); higher = stronger binding
# Settings in all cases: glycan notation: IUPAC condensed, linker removed
# Gal3S4S(b1-4)GlcNAc = target: Gal3S4S(b1-4)GlcNAc
# Method in brief: (§1)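 Arrays were curated from the Consortium for Functional Glycomics database, 3228 in total, and kept only where the protein sequence was available. Binding is expressed as a within-array Z-score. This score was averaged across arrays of the same protein sequence at different concentrations or buffers and across linkers, and negative values can be read as non-binding.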
# Gal3S6S(b1-4)GlcNAc = target: Gal3S6S(b1-4)GlcNAc
# Method in brief: as §1
# Gal3S6S(b1-4)GlcNAc6S = target: Gal3S6S(b1-4)GlcNAc6S
# Method in brief: as §1
# Gal4S(b1-4)GlcNAc = target: Gal4S(b1-4)GlcNAc
# Method in brief: as §1
# Gal4S6S(b1-4)GlcNAc = target: Gal4S6S(b1-4)GlcNAc
# Method in brief: as §1
# Gal6P(b1-4)GlcNAc = target: Gal6P(b1-4)GlcNAc
# Method in brief: as §1
# Gal6S(b1-3)GlcNAc = target: Gal6S(b1-3)GlcNAc
# Method in brief: as §1
# Gal6S(b1-3)GlcNAc6S = target: Gal6S(b1-3)GlcNAc6S
# Method in brief: as §1
# Gal6S(b1-4)Glc = target: Gal6S(b1-4)Glc
# Method in brief: as §1
# Gal6S(b1-4)Glc6S = target: Gal6S(b1-4)Glc6S
# Method in brief: as §1
# Gal6S(b1-4)GlcNAc = target: Gal6S(b1-4)GlcNAc
# Method in brief: as §1
# Gal6S(b1-4)GlcNAc6S = target: Gal6S(b1-4)GlcNAc6S
# Method in brief: as §1
# GalNAc(a1-3)Gal = target: GalNAc(a1-3)Gal
# Method in brief: as §1
# GalNAc(a1-3)GalNAc = target: GalNAc(a1-3)GalNAc
# Method in brief: as §1
# [1] = target: GalNAc(a1-3)GalNAc(b1-3)Gal(a1-4)Gal(b1-4)Glc
# Method in brief: as §1
# [2] = target: GalNAc(a1-3)GalNAc(b1-3)Gal(a1-4)Gal(b1-4)GlcNAc
# Method in brief: as §1
# GalNAc(b1-3)Gal = target: GalNAc(b1-3)Gal
# Method in brief: as §1
# [3] = target: GalNAc(b1-3)Gal(a1-4)Gal(b1-4)GlcNAc
# Method in brief: as §1
# [4] = target: GalNAc(b1-3)Gal(a1-4)Gal(b1-4)GlcNAc(b1-3)Gal(b1-4)Glc
# Method in brief: as §1
# [5] = target: GalNAc(b1-3)Gal(a1-6)Gal(b1-4)Glc
# Method in brief: as §1
# GalNAc(b1-3)GalNAc = target: GalNAc(b1-3)GalNAc
# Method in brief: as §1
# GalNAc(b1-3)GlcNAc = target: GalNAc(b1-3)GlcNAc
# Method in brief: as §1
# GalNAc(b1-4)Gal(b1-4)Glc = target: GalNAc(b1-4)Gal(b1-4)Glc
# Method in brief: as §1
# GalNAc(b1-4)GlcNAc = target: GalNAc(b1-4)GlcNAc
# Method in brief: as §1
# [6] = target: GalNAc(b1-4)GlcNAc(b1-2)Man
# Method in brief: as §1
# [7] = target: GalNAc(b1-4)GlcNAc(b1-2)Man(a1-3)[GalNAc(b1-4)GlcNAc(b1-2)Man(a1-6)]Man(b1-4)GlcNAc(b1-4)GlcNAc
# Method in brief: as §1
# [8] = target: GalNAc(b1-4)GlcNAc(b1-3)GalNAc(b1-4)GlcNAc
# Method in brief: as §1
# GalNAc(b1-4)GlcNAc6S = target: GalNAc(b1-4)GlcNAc6S
# Method in brief: as §1
# GalNAc(b1-6)GalNAc = target: GalNAc(b1-6)GalNAc
# Method in brief: as §1
# GalNAc3S(b1-4)GlcNAc = target: GalNAc3S(b1-4)GlcNAc
# Method in brief: as §1
# GalNAc3S(b1-4)GlcNAc3S = target: GalNAc3S(b1-4)GlcNAc3S
# Method in brief: as §1
# [9] = target: GalNAc3S(b1-4)[Fuc(a1-3)]GlcNAc
# Method in brief: as §1
# GalNAc4S6S(b1-4)GlcNAc = target: GalNAc4S6S(b1-4)GlcNAc
# Method in brief: as §1
# GalNAc6S(b1-4)GlcNAc = target: GalNAc6S(b1-4)GlcNAc
# Method in brief: as §1
# Glc(a1-4)Glc = target: Glc(a1-4)Glc
# Method in brief: as §1
# [10] = target: Glc(a1-4)Glc(a1-4)Glc(a1-4)Glc
# Method in brief: as §1
# Glc(a1-6)Glc(a1-6)Glc = target: Glc(a1-6)Glc(a1-6)Glc
# Method in brief: as §1
# [11] = target: Glc(a1-6)Glc(a1-6)Glc(a1-6)Glc
# Method in brief: as §1
binder,measurement,setting,value
B1,glycan array binding signal (z-score),Gal3S4S(b1-4)GlcNAc,-0.9
same,glycan array binding signal (z-score),Gal3S6S(b1-4)GlcNAc,-0.411
same,glycan array binding signal (z-score),Gal3S6S(b1-4)GlcNAc6S,0.06
same,glycan array binding signal (z-score),Gal4S(b1-4)GlcNAc,-0.88
same,glycan array binding signal (z-score),Gal4S6S(b1-4)GlcNAc,-0.328
same,glycan array binding signal (z-score),Gal6P(b1-4)GlcNAc,-0.084
same,glycan array binding signal (z-score),Gal6S(b1-3)GlcNAc,-0.641
same,glycan array binding signal (z-score),Gal6S(b1-3)GlcNAc6S,0.708
same,glycan array binding signal (z-score),Gal6S(b1-4)Glc,-0.216
same,glycan array binding signal (z-score),Gal6S(b1-4)Glc6S,0.047
same,glycan array binding signal (z-score),Gal6S(b1-4)GlcNAc,-0.425
same,glycan array binding signal (z-score),Gal6S(b1-4)GlcNAc6S,0.404
same,glycan array binding signal (z-score),GalNAc(a1-3)Gal,-0.428
same,glycan array binding signal (z-score),GalNAc(a1-3)GalNAc,-0.598
same,glycan array binding signal (z-score),[1],-0.437
same,glycan array binding signal (z-score),[2],-0.099
same,glycan array binding signal (z-score),GalNAc(b1-3)Gal,-0.563
same,glycan array binding signal (z-score),[3],-0.222
same,glycan array binding signal (z-score),[4],-0.094
same,glycan array binding signal (z-score),[5],-0.117
same,glycan array binding signal (z-score),GalNAc(b1-3)GalNAc,-0.599
same,glycan array binding signal (z-score),GalNAc(b1-3)GlcNAc,-0.632
same,glycan array binding signal (z-score),GalNAc(b1-4)Gal(b1-4)Glc,1.32
same,glycan array binding signal (z-score),GalNAc(b1-4)GlcNAc,0.706
same,glycan array binding signal (z-score),[6],-0.849
same,glycan array binding signal (z-score),[7],-0.233
same,glycan array binding signal (z-score),[8],0.195
same,glycan array binding signal (z-score),GalNAc(b1-4)GlcNAc6S,-0.013
same,glycan array binding signal (z-score),GalNAc(b1-6)GalNAc,-0.649
same,glycan array binding signal (z-score),GalNAc3S(b1-4)GlcNAc,-0.07
same,glycan array binding signal (z-score),GalNAc3S(b1-4)GlcNAc3S,1.57
same,glycan array binding signal (z-score),[9],-0.571
same,glycan array binding signal (z-score),GalNAc4S6S(b1-4)GlcNAc,0.884
same,glycan array binding signal (z-score),GalNAc6S(b1-4)GlcNAc,-0.396
same,glycan array binding signal (z-score),Glc(a1-4)Glc,-1.42
same,glycan array binding signal (z-score),[10],0.482
same,glycan array binding signal (z-score),Glc(a1-6)Glc(a1-6)Glc,-0.516
same,glycan array binding signal (z-score),[11],-0.333

# Fetched one by one from the entries so far (two):
binder,measurement,setting,value
B1,glycan array binding signal (z-score),[8],0.195
same,glycan array binding signal (z-score),GalNAc(b1-3)Gal,-0.563
